# Reference: PubChem BioAssay AID2662 (National Center for Advancing Translational Sciences (NCATS), 2010)
# Sequences of proteins named here, by UniProt entry; tags and fusion partners are left off.
# UniProt Q03164, whole entry, looked up: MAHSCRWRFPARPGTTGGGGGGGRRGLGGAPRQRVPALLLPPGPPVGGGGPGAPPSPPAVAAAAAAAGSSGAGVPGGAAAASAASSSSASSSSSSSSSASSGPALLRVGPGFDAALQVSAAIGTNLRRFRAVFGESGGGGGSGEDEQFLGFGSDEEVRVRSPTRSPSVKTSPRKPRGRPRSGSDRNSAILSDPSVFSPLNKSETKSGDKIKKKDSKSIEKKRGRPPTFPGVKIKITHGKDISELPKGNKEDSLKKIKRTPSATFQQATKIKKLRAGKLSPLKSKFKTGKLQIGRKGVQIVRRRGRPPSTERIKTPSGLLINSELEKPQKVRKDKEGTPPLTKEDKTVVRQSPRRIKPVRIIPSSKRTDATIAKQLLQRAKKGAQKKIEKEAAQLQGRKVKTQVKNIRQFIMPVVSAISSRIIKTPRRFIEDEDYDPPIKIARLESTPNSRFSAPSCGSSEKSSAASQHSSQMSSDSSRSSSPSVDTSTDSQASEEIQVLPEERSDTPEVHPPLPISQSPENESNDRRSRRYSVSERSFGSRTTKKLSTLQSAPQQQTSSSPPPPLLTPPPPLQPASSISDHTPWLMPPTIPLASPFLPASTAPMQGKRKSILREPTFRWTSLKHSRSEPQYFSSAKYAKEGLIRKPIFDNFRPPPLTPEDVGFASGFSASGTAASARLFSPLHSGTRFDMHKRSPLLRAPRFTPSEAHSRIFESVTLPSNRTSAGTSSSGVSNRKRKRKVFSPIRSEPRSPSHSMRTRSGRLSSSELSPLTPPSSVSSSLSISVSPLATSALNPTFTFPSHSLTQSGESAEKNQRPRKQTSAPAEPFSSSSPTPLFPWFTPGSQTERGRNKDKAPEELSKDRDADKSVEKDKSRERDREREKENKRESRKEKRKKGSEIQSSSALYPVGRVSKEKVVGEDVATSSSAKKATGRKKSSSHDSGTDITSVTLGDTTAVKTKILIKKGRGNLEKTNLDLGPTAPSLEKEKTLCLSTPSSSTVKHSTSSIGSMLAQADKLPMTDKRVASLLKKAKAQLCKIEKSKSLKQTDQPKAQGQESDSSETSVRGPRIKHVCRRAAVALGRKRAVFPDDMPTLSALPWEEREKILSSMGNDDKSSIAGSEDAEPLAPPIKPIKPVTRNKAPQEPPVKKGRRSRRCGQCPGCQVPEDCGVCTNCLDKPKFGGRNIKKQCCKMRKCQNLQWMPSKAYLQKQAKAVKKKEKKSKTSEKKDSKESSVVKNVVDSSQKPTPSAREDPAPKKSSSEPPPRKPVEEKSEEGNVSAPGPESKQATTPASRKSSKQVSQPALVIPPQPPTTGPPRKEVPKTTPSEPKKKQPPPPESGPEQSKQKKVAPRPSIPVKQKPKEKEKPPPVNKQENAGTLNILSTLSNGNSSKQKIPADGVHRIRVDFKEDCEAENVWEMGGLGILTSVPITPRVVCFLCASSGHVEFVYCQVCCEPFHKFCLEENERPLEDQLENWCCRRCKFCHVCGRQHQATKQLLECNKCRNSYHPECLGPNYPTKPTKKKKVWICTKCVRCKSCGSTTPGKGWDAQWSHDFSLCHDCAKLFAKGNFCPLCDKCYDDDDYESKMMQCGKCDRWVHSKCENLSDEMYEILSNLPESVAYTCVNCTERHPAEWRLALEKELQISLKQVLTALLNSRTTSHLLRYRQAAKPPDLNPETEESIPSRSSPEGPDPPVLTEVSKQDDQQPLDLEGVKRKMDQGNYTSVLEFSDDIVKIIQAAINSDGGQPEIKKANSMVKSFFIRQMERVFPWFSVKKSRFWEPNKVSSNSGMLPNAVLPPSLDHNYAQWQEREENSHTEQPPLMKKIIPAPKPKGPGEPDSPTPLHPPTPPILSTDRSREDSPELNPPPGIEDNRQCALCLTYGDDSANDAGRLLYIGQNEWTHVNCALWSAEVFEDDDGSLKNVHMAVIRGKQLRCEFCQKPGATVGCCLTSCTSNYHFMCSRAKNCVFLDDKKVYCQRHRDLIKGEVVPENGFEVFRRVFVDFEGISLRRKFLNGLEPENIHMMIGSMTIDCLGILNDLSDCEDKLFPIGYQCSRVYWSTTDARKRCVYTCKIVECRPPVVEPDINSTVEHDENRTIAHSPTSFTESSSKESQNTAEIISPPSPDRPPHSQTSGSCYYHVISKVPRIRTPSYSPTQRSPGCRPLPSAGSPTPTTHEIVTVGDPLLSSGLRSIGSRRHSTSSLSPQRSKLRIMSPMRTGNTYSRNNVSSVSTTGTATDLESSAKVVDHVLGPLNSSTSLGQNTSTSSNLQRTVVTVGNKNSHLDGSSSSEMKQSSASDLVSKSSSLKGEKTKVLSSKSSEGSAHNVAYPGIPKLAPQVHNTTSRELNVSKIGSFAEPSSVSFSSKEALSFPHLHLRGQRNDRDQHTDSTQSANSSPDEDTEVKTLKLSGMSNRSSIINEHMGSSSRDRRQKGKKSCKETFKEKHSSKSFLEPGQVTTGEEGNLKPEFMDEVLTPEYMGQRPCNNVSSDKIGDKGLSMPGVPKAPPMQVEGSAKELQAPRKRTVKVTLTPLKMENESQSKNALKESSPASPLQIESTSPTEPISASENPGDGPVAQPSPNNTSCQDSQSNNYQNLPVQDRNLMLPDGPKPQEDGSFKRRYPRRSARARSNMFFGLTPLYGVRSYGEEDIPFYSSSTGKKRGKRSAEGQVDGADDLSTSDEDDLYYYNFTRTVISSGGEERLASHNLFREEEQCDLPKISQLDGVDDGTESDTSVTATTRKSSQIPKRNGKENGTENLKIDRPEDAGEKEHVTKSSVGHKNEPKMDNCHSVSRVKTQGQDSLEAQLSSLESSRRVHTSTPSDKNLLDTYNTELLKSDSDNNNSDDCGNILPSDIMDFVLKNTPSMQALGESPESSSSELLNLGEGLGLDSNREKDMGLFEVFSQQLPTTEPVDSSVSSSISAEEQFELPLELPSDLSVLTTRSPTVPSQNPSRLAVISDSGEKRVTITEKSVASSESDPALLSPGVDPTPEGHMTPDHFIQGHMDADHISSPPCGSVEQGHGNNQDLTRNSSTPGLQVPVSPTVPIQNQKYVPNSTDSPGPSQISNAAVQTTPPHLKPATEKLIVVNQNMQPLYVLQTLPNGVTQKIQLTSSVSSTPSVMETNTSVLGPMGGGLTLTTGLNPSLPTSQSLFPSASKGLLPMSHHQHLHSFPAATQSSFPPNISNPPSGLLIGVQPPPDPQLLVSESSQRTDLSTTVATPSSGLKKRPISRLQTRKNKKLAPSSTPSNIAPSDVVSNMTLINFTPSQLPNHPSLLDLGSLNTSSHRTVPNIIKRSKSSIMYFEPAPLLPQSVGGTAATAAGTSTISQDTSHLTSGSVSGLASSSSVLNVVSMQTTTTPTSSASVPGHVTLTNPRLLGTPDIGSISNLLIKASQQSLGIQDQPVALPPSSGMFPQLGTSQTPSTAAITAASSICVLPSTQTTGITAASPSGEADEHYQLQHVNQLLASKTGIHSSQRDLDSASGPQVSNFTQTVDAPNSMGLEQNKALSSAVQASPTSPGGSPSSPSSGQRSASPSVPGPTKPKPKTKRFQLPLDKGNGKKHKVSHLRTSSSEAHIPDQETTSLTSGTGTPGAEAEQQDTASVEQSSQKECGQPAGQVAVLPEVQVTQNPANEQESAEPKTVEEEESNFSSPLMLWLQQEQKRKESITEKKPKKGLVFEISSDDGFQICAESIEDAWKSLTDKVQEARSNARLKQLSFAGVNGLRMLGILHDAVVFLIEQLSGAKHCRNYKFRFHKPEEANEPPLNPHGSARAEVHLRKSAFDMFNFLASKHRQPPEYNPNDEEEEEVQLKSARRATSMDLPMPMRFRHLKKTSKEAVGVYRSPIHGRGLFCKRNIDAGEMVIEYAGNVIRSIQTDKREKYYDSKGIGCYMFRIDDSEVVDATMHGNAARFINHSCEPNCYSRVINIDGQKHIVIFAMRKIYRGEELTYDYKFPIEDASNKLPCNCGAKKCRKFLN
# In all, about 290,000 compounds went through this assay and about 110 (0.038%) were called active. Inconclusive results, whose numbers are uncertain, are shown with a selection of clear calls. Calls follow the shape of the dose curve; as a rule, active = well fitted inhibition curve with a large enough effect in the polarisation, with a control signal flat (not every such curve was filed as active); inconclusive = small, poorly fitted or top-dose-only effect, or effect the other way, or a change in a side signal; inactive = no such curve, though single readings can be large or run the other way; the % refers to the polarisation. Potencies beside an inconclusive call are fits to weak or partial responses and may not hold up. A note “side channel” means that the fit belongs to a control or component signal, not to the main read-out.
# Biological target: Histone-lysine N-methyltransferase 2A (Homo sapiens) (UniProt Q03164)
# Experiment: qHTS Fluorescence Polarization Assay for Inhibitors of MLL CXXC domain - DNA interaction
# Conditions: MLL-CXXC / FITC-HOXA9 DNA fluorescence polarization; activity change, negative = inhibition: at 115 µM (top of the series)
# In short: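 Purified MLL-CXXC (added from a 7 uM solution) was preincubated 5 min at ambient with pinned compounds in 50 mM Tris-HCl pH 7.5, 50 mM NaCl, 1 mM DTT, 0.05% BSA. Fluorescein-labeled HOX-A9 DNA (50 nM solution) followed, 30 min, then polarization read.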
# Potency is read from the fitted curve at half-maximal effect.
SMILES,Potency,"activity change, negative = inhibition"
O=c1c2ccccc2nc(/C=C/c2ccc3c(c2)OCO3)n1-c1ccccc1,"inconclusive: 89.1 µM [inhibitor, single point]",
COc1ccc(-n2c(O)c(/C=C/C=Nc3ccccc3)c(=O)[nH]c2=O)cc1,"inconclusive: 11.2 µM [fluorescent, side channel, full curve]",
Cc1ccccc1NC(=O)c1cc(-c2ccccc2)n(CCCN2CCOCC2)c1C,"inconclusive: 3.16 µM [quencher, side channel, full curve]",
O=c1[nH]c(=O)n(-c2ccccc2)c(O)c1/C=C1/C(c2ccccc2)=Nc2ccccc21,"inconclusive: 50.1 µM [inhibitor, single point]",
CC1=Nc2ccccc2/C1=C/c1c(O)[nH]c(=O)[nH]c1=O,"inconclusive: 28.2 µM [inhibitor, partial curve]",
COC[C@H]1OC(=O)c2coc3c2[C@@]1(C)C1=C(C3=O)C2CCC(=O)[C@@]2(C)C[C@H]1OC(C)=O (stereo partly drawn),"inconclusive: 39.8 µM [inhibitor, single point]",
C[C@@H]1O[C@H](C[N+](C)(C)C)CS1,,inactive: -17.9%
CCOC(=O)[C@]1(C#N)[C@@H]2C=CC(C(C)=O)=CN2[C@@H](C(N)=O)[C@@H]1c1ccsc1,"inconclusive: 31.6 µM [fluorescent, side channel, single point]",
Cc1ccc(/C=C2/C(=O)NC(=O)N(CCc3ccc(F)cc3)C2=O)s1,"inconclusive: 28.2 µM [inhibitor, single point]",
NCCc1c[nH]c2ccc(F)cc12,"inconclusive: 3.98 µM [quencher, side channel, partial curve]",
CN1CC=C2C(C#N)=C(N)C(C#N)(C#N)C(c3ccncc3)C2C1 (stereo not drawn),"inconclusive: 89.1 µM [inhibitor, single point]",
Cc1nc2cc(C(F)(F)F)ccc2n1C1CCN(Cc2nnnn2Cc2ccc3c(c2)OCO3)CC1,,inactive: -5.47%
Nc1cncc(C(=O)O)c1,,inconclusive: -3.54% [phenotype inactive]
NC(N)=Nc1ccc2[nH]c3c(c2c1)C[C@@]1(O)[C@H]2Cc4ccc(O)c5c4[C@@]1(CCN2CC1CC1)[C@H]3O5,,inactive: 15.5%
CN1CCN2c3ccc(N)cc3CC3(C(=O)NC(=O)NC3=O)C2C1 (stereo not drawn),"inconclusive: 39.8 µM [inhibitor, single point]",
COc1cccc(Oc2coc3cc(OC(=O)N(C)C)ccc3c2=O)c1,"inconclusive: 14.1 µM [inhibitor, single point]",
Cc1cc(C(C#N)c2ccc(Cl)cc2)c(Cl)cc1NC(=O)c1cc(I)cc(I)c1O (stereo not drawn),"inconclusive: 89.1 µM [inhibitor, single point]",
CCCCN1C(=O)/C(=C/C=C/c2ccco2)C(=O)NC1=S,"inconclusive: 63.1 µM [fluorescent, side channel, single point]",
CCn1nc(-c2ccccc2)nc2c(=O)n(C)c(=O)nc1-2,"inconclusive: 35.5 µM [inhibitor, single point]",
N=C1/C(=C/c2ccc(OC(=O)c3ccco3)cc2)C(=O)N=C2SC=CN12,"inconclusive: 10 µM [fluorescent, side channel, full curve]",

SMILES,Potency,"activity change, negative = inhibition"
Cc1cc(/C=C2\C(=O)NC(=O)N(Cc3ccco3)C2=O)c(C)n1-c1ccc(C(=O)O)cc1,active: 28.2 µM,
C(=NC12CN3CN(CN(C3)C1)C2)c1cccnc1,"inconclusive: 14.1 µM [quencher, side channel, partial curve]",
O=C(Cn1cc(C=C2C(=O)NC(=O)NC2=O)c2ccccc21)NCC1CCCO1 (stereo not drawn),"inconclusive: 63.1 µM [inhibitor, single point]",
COCCNC(=O)c1c(NC(=O)c2ccco2)n(Cc2ccccc2)c2nc3ccccc3nc12,"inconclusive: 31.6 µM [fluorescent, side channel, partial curve]",
C[n+]1ccc(-c2ccncc2)cc1,,inactive: 1.32%
CN1C[C@H](CO)C[C@@H]2c3cccc4[nH]cc(c34)C[C@H]21,,inactive: -1.23%
CCOP(=O)(C1=C(O)C(=O)C(C(C)(C)C)=CC1=O)c1ccccc1 (stereo not drawn),"inconclusive: 31.6 µM [inhibitor, single point]",
CCN(CC)c1ccc(CC2C(=O)N(C)C(=O)N(C)C2=O)cc1,,inactive: 18.5%
O=Cc1c(C(=O)O)n(Cc2ccc(Cl)cc2)c2ccccc12,"inconclusive: 12.6 µM [fluorescent, side channel, partial curve]",
Cc1cc2nc3c(=O)[nH]c(=O)nc-3n(C[C@H](O)[C@H](O)[C@H](O)COP(=O)(O)OP(=O)(O)OC[C@H]3O[C@@H](n4cnc5c(N)ncnc54)[C@H](O)[C@@H]3O)c2cc1C,"inconclusive: 39.8 µM [fluorescent, side channel, full curve]",
CCN(CC)c1ccc(N=Cc2c(O)n(-c3ccc(OC)cc3)c(=O)[nH]c2=O)cc1,"inconclusive: 44.7 µM [fluorescent, side channel, single point]",
CCCCC(=O)N/N=C/c1c(O)n(-c2cccc3ccccc23)c(=O)[nH]c1=O,,inactive: -9.94%
CCCCn1c(O)c(C(=O)/C=C/c2c[nH]c3ccccc23)c(=O)[nH]c1=O,"inconclusive: 14.1 µM [fluorescent, side channel, partial curve]",
O=C(O)c1ccc(-n2c(O)c(/C=C3\C=Nc4ccccc43)c(=O)[nH]c2=O)cc1,"inconclusive: 10 µM [inhibitor, single point]",
COc1ccc(-c2cn(CCO)nc2-c2ccc(OC)cc2)cc1,"inconclusive: 63.1 µM [fluorescent, side channel, single point]",
COc1ccc(-n2c(/C=C/c3ccc(O)c(O)c3)nc3ccccc3c2=O)cc1,"inconclusive: 28.2 µM [fluorescent, side channel, partial curve]",
CN1C(=O)/C(=C/c2ccc(Cl)s2)C(=O)NC1=S,"inconclusive: 22.4 µM [inhibitor, partial curve]",
Cc1ccc(/C=C2\C(=O)NC(=O)N(CCc3ccc(F)cc3)C2=O)s1,"inconclusive: 31.6 µM [fluorescent, side channel, partial curve]",
CN1CCc2cc(O)cc3c2C1Cc1ccc(O)c(O)c1-3 (stereo not drawn),"inconclusive: 28.2 µM [quencher, side channel, partial curve]",
Cc1cccc(N2C(=O)/C(=C/c3ccc(N4CCN(C)CC4)o3)C(=O)NC2=S)c1C,"inconclusive: 14.1 µM [fluorescent, side channel, single point]",

# Quoted at random: four compounds from above, in no set order.
SMILES,Potency,"activity change, negative = inhibition"
O=c1c2ccccc2nc(/C=C/c2ccc3c(c2)OCO3)n1-c1ccccc1,"inconclusive: 89.1 µM [inhibitor, single point]",
O=C(Cn1cc(C=C2C(=O)NC(=O)NC2=O)c2ccccc21)NCC1CCCO1 (stereo not drawn),"inconclusive: 63.1 µM [inhibitor, single point]",
COCCNC(=O)c1c(NC(=O)c2ccco2)n(Cc2ccccc2)c2nc3ccccc3nc12,"inconclusive: 31.6 µM [fluorescent, side channel, partial curve]",
COc1ccc(-n2c(O)c(/C=C/C=Nc3ccccc3)c(=O)[nH]c2=O)cc1,"inconclusive: 11.2 µM [fluorescent, side channel, full curve]",

# Remaining list, next part

SMILES,Potency,"activity change, negative = inhibition"
CC(C)N(Cc1nccn1C)C(=O)CCc1nnc(CCCc2ccccc2)o1,"inconclusive: 15.8 µM [inhibitor, single point]",
N#CC(C#N)=Cc1ccc(-c2ccccc2)o1,"inconclusive: 8.91 µM [fluorescent, side channel, partial curve]",
Cn1cc(C=C(C#N)C#N)c2ccccc21,"inconclusive: 70.8 µM [fluorescent, side channel, single point]",
NCc1cccnc1,,inactive: -1.02%
CN1C(=O)C(=Cc2sc(=O)n(-c3ccccc3)c2N2CCCCC2)C(=O)N(C)C1=O,"inconclusive: 31.6 µM [fluorescent, side channel, partial curve]",
CCOc1cc(/C=C2\C(=O)NC(=O)N(C)C2=O)cc([N+](=O)[O-])c1O,"inconclusive: 31.6 µM [inhibitor, partial curve]",
Cc1ccc(/C=C2/C(=O)NC(=O)N(CC3CCCO3)C2=O)s1 (stereo not drawn),"inconclusive: 17.8 µM [inhibitor, partial curve]",
COc1cccc(C2(O)CCN(CC(=O)Nc3nc(C)cs3)CC2)c1,"inconclusive: 6.31 µM [inhibitor, full curve, poor fit]",
O=C1OC(c2ccc(O)c(S(=O)(=O)O)c2)(c2ccc(O)c(S(=O)(=O)O)c2)c2c(Br)c(Br)c(Br)c(Br)c21,"inconclusive: 89.1 µM [inhibitor, single point]",
O=C(/C=C/c1c[nH]c2ccccc12)c1c(O)n(CCc2ccccc2)c(=O)[nH]c1=O,"inconclusive: 11.2 µM [fluorescent, side channel, partial curve]",
CC(=O)c1ccc(-c2ccc(Cn3c(C)nc4cc(N)c(C)nc43)cc2)cc1,"inconclusive: 44.7 µM [fluorescent, side channel, single point]",
O=c1[nH]c(O)c(/C=C2\C=NN=C2c2ccccc2)c(=O)[nH]1,"inconclusive: 28.2 µM [inhibitor, partial curve]",
CSc1ccc(C(c2c(O)c3ccccc3oc2=O)c2c(C)n(C)n(-c3ccccc3)c2=O)cc1 (stereo not drawn),"inconclusive: 2.82 µM [fluorescent, side channel, full curve, poor fit]",
Cc1cc(C=C2C(=O)NC(=S)NC2=O)c(C)n1C1CCCC1,"inconclusive: 89.1 µM [inhibitor, single point]",
CC(Cc1ccccc1)NC(=O)Cc1ccc(N(C)C)cc1 (stereo not drawn),"inconclusive: 5.01 µM [fluorescent, side channel, full curve, poor fit]",
O=C1C=C2C=CC3C[C@@]2(O1)C1CCCCN31 (stereo partly drawn),,inconclusive: -4.6% [phenotype inactive]
Cc1ccc(Cn2cc(C=O)c(-c3ccc(F)cc3)n2)cc1,,inactive: 30.8%
CC(C)(O)[C@H]1O[C@H]2CC[C@@]3(C)[C@@](O)(CC[C@H]4Cc5c([nH]c6ccccc56)[C@@]43C)C2=CC1=O,"inconclusive: 39.8 µM [inhibitor, single point]",
